# From article doi:10.1101/2021.04.11.439363
# The chains behind the UniProt entries cited, without tags or fusion partners. Where a name states a change or a piece, a line headed by the entry shows the natural chain unless it says otherwise.
# UniProt Q2NKJ3: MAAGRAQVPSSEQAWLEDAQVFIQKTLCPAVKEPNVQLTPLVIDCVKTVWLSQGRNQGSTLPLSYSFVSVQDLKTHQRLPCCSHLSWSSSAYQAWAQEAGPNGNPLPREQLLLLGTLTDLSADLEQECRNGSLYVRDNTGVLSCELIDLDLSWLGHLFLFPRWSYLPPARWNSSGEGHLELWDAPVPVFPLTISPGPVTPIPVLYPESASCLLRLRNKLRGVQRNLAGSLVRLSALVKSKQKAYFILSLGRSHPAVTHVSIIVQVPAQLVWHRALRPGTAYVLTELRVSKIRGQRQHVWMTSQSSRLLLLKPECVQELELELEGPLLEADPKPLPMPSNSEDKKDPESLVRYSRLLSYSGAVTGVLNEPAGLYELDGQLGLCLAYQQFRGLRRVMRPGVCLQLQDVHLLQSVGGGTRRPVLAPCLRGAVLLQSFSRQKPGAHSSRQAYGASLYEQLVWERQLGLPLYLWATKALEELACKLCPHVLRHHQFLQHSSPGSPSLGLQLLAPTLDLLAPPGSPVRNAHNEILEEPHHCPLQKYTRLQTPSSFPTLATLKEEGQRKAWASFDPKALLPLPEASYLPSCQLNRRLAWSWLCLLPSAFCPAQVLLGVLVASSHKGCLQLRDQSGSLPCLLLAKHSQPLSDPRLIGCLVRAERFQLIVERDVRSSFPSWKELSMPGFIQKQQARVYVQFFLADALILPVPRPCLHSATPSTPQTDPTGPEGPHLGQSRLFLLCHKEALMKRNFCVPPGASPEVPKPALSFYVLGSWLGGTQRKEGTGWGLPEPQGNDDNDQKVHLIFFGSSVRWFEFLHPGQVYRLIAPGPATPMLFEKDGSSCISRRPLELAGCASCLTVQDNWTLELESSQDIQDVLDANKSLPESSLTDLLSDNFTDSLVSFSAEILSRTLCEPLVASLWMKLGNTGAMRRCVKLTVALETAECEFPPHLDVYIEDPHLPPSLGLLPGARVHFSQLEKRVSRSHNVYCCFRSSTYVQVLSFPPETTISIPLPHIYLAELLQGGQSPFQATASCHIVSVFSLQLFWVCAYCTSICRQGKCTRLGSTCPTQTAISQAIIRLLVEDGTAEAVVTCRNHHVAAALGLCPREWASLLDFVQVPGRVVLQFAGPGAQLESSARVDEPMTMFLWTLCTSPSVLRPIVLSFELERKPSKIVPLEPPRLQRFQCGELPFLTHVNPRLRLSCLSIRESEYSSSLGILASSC
# UniProt Q86WV5: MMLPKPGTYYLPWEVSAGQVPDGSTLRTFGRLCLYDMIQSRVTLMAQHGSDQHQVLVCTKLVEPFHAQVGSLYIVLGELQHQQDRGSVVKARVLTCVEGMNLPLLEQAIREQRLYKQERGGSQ
# UniProt Q9UQE7: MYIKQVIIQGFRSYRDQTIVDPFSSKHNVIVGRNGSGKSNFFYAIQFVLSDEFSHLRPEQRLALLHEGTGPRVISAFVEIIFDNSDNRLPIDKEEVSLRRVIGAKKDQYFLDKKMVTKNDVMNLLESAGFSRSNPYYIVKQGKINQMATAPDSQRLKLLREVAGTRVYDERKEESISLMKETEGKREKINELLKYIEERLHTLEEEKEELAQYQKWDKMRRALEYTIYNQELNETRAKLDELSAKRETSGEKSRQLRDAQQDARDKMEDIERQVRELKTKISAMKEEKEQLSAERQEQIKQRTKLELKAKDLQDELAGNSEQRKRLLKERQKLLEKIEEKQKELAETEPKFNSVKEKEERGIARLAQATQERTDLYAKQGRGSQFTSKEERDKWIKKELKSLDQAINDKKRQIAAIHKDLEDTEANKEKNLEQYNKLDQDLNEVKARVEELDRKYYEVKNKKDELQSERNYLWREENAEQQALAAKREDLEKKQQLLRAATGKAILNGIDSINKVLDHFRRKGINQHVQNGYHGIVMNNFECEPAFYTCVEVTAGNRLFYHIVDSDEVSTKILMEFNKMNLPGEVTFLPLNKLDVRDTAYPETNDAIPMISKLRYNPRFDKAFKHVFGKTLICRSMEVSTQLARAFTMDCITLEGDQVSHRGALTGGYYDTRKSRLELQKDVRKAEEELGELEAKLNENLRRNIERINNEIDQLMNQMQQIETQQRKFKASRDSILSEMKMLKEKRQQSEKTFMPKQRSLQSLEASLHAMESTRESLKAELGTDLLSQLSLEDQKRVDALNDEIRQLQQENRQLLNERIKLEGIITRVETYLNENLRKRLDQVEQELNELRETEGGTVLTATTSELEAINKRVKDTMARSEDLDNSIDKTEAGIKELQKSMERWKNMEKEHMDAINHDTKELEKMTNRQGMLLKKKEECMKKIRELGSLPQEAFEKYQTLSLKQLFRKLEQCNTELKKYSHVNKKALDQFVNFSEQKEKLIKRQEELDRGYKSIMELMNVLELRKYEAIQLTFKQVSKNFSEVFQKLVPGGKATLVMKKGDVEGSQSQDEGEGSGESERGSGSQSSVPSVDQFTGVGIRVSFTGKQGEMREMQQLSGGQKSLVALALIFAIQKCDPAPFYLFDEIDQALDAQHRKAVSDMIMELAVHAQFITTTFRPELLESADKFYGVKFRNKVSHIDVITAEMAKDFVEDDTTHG
# These are yes or no findings as the source states them, for the method shown. In cells and extracts the contact can be indirect. Some results given as binding are weak or reduced against the parent protein; the word gives no strength. For part of these data: Tags and fused reporters may be left off the sequences shown.
# T1: Flag-tagged STN1, expressed alone (human) (UniProt Q9H668)
# T1 sequence: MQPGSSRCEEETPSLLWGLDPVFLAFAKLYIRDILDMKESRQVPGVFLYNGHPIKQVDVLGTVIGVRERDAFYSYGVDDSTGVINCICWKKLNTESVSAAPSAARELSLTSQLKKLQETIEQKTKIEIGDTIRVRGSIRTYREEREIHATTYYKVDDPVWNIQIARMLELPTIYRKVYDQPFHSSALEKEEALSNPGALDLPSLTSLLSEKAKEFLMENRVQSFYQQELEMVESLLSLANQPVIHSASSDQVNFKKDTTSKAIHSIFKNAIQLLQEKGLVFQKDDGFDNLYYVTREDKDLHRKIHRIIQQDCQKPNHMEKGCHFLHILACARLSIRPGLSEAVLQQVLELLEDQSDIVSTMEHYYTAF
# Legend:
# [1] = molecular target: CTC1-STN1-TEN1 (CST) complex, epitope-tagged, co-expressed (human) (UniProt Q2NKJ3+Q9H668+Q86WV5); experiment: co-IP
# [2] = molecular target: T1, Flag-tagged STN1, expressed alone (human); experiment: co-IP
binding [1],binding [2],Molecule
binds,binds,"SMC3, endogenous in HEK 293T (from UniProt Q9UQE7 1-1217)"
binds,,"SMC1A, endogenous in HEK 293T (protein, UniProt Q14683 1-1233) MGFLKLIEIENFKSYKGRQIIGPFQRFTAIIGPNGSGKSNLMDAISFVLGEKTSNLRVKTLRDLIHGAPVGKPAANRAFVSMVYSEEGAEDRTFARVIVGGSSEYKINNKVVQLHEYSEELEKLGILIKARNFLVFQGAVESIAMKNPKERTALFEEISRSGELAQEYDKRKKEMVKAEEDTQFNYHRKKNIAAERKEAKQEKEEADRYQRLKDEVVRAQVQLQLFKLYHNEVEIEKLNKELASKNKEIEKDKKRMDKVEDELKEKKKELGKMMREQQQIEKEIKEKDSELNQKRPQYIKAKENTSHKIKKLEAAKKSLQNAQKHYKKRKGDMDELEKEMLSVEKARQEFEERMEEESQSQGRDLTLEENQVKKYHRLKEEASKRAATLAQELEKFNRDQKADQDRLDLEERKKVETEAKIKQKLREIEENQKRIEKLEEYITTSKQSLEEQKKLEGELTEEVEMAKRRIDEINKELNQVMEQLGDARIDRQESSRQQRKAEIMESIKRLYPGSVYGRLIDLCQPTQKKYQIAVTKVLGKNMDAIIVDSEKTGRDCIQYIKEQRGEPETFLPLDYLEVKPTDEKLRELKGAKLVIDVIRYEPPHIKKALQYACGNALVCDNVEDARRIAFGGHQRHKTVALDGTLFQKSGVISGGASDLKAKARRWDEKAVDKLKEKKERLTEELKEQMKAKRKEAELRQVQSQAHGLQMRLKYSQSDLEQTKTRHLALNLQEKSKLESELANFGPRINDIKRIIQSREREMKDLKEKMNQVEDEVFEEFCREIGVRNIREFEEEKVKRQNEIAKKRLEFENQKTRLGIQLDFEKNQLKEDQDKVHMWEQTVKKDENEIEKLKKEEQRHMKIIDETMAQLQDLKNQHLAKKSEVNDKNHEMEEIRKKLGGANKEMTHLQKEVTAIETKLEQKRSDRHNLLQACKMQDIKLPLSKGTMDDISQEEGSSQGEDSVSGSQRISSIYAREALIEIDYGDLCEDLKDAQAEEEIKQEMNTLQQKLNEQQSVLQRIAAPNMKAMEKLESVRDKFQETSDEFEAARKRAKKAKQAFEQIKKERFDRFNACFESVATNIDEIYKALSRNSSAQAFLGPENPEEPYLDGINYNCVAPGKRFRPMDNLSGGEKTVAALALLFAIHSYKPAPFFVLDEIDAALDNTNIGKVANYIKEQSTCNFQAIVISLKEEFYTKAESLIGVYPEQGDCVISKVLTFDLTKYPDANPNPNEQ"
